# Measurements published in PubChem BioAssay AID493014 (National Center for Advancing Translational Sciences (NCATS), 2011).
# About 170 (0.05%) of roughly 340,000 compounds were called active. The inconclusive results got no clear call from the source; some entries with a clear call stand among them for comparison. Calls come from the whole dose curve; as a rule, active = well fitted inhibition curve with a large enough effect in the signal ratio, with a control signal flat (not every such curve was filed as active); inconclusive = small, poorly fitted or top-dose-only effect, or effect the other way, or a change in a side signal; inactive = flat fitted curve, though single readings scatter; the % refers to the signal ratio. Potencies beside an inconclusive call are fits to weak or partial responses and may not hold up.
# Assay: qHTS Assay to Find Inhibitors of Chronic Active B-Cell Receptor Signaling;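 for activity change, negative = inhibition: plate controls were basal doxycycline-induced cells for no effect and cells given 10 µM MG132 for full effect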
# Conditions: ABC-DLBCL IkBa-CBG/CBR reporter, luminescence ratio (green luciferase fused to IkBa over red control in TMD8 lymphoma cells), 4 h; activity change, negative = inhibition: at 46.1 µM (top of the series) unless noted
# Outline: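 Concentration-response series (up to 46 uM) were applied to TMD8 dual-reporter cells for 4 h at 37C with doxycycline. Green/red ratio, after filter-overlap correction, defined %Activity; red signal alone was normalised to basal cells and zero luminescence.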
# Potency is the fitted concentration of half-maximal effect.
Structure (SMILES),"activity change, negative = inhibition",Potency
c1ccc2[nH]c3cc4ncnc4cc3nc2c1,inconclusive: 4.24%,
COc1cc(-c2ccc3oc(-c4ccsc4)cc(=O)c3c2)cc(OC)c1OC,,"inconclusive: 29.1 µM [falling, single point]"
COC(C(=O)Nc1ccnn1C1CCN(C(=O)c2ccc(C=O)cc2)CC1)c1ccccc1 (stereo not given),inactive: -0.227%,
Cc1ccc(S(=O)(=O)c2nc(-c3ccccc3)oc2NCCN2CCOCC2)cc1,,"inconclusive: 11.6 µM [rising, partial curve, poor fit]"
O=C(NCCCN1CCOCC1)c1ccccc1N1C(=O)[C@@H]2Cc3c([nH]c4ccccc34)C(c3cccc(Cl)c3)N2C1=O (stereo not given in full),inactive: 6.39%,
Cc1cccc(N2CC(C(=O)Nc3ccc(N4CCOCC4)cc3)CC2=O)c1C (stereo not given),inconclusive: 6.98%,
CN(CC(=O)Nc1ccc(N2CCOCC2)cc1)C(=O)CSc1ccccc1F,inconclusive: -1.75%,
CC(C)NC(=S)N=Nc1c(O)[nH]c2ccc([N+](=O)[O-])cc12,,"inconclusive: 7.08 µM [falling, partial curve, poor fit]"
COc1ccccc1CN(C)C(=O)c1cc(-c2cc(OC)c(OC)c(OC)c2)nc2ccccc12,inconclusive: -11.8%,
Cc1cc(NS(=O)(=O)c2ccc(NC(=S)NC(=O)c3ccc(Br)cc3)cc2)no1,inactive: 5.69%,
N#CCCN(CCC#N)S(=O)(=O)c1ccc(C(=O)Nc2nc(-c3ccccc3)c(C(=O)c3ccccc3)s2)cc1,inconclusive: 18.6%,
Cc1nnc(NC(=O)CSC2CCCCC2)s1,inactive: 8.35%,
COc1ccccc1N1CCN(CC(=O)Nc2ccc(-n3cnnn3)cc2)CC1,inconclusive: 7.8%,
CC(Nc1ncnc2c1cnn2-c1cccc(Cl)c1)c1ccccc1 (stereo not given),inconclusive: -2.35%,
CCOC(=O)[C@@H]1[C@H]2COc3ccc(Br)cc3[C@@H]2N2C(=O)N(c3ccc(C(F)(F)F)cc3)C(=O)[C@]12C,,"inconclusive: 10 µM [falling, partial curve, poor fit]"
CCN(CC)c1ccc(NC(=S)Nc2ccc(F)cc2)cc1,inactive: -4.28%,
CCOc1cc(/C=C2\C(=O)N(c3ccc(C(N)=O)cc3)N=C2C)ccc1OC(=O)c1cccs1,inconclusive: 1.19%,
Cc1ccc(S(=O)(=O)NCCC(=O)N2CCN(c3cccc(Cl)c3)CC2)cc1C,inactive: -0.519%,
COc1cccc(OC)c1C(=O)Nc1nc(COc2ccccc2)cs1,inconclusive: 3.53%,
O=C(NC1CCCCC1)c1ccc(-c2ccccc2F)o1,,"inconclusive: 20.6 µM [falling, partial curve]"
CN1CCCN(c2ncnc3scc(-c4ccc(F)cc4)c23)CC1,inactive: -3.38%,
CCOC(=O)NC(NCc1ccccc1)(C(F)(F)F)C(F)(F)F,inconclusive: 1.13%,
COc1ccc(-c2cnnc(N/N=C/c3ccc(O)c(OC)c3)n2)cc1,,"inconclusive: 20.6 µM [falling, partial curve]"
CCNc1nn2ccccc2c1/C=C(\C#N)C(=O)OCC,inconclusive: 15.7%,
Cc1cc(C=C2C(=O)c3ccccc3C2=O)c(C)n1-c1ccccc1,inactive: 3.71%,
COc1ccc2cc(C3OCCO3)c(Cl)nc2c1,inconclusive: 1.33%,
CN(c1ccccc1C(=O)O)S(C)(=O)=O,inactive: 5.07%,

Structure (SMILES),"activity change, negative = inhibition",Potency
COc1ccc(/C=C2\SC(=S)N(CCCC(=O)Nc3ccc(O)cc3)C2=O)cc1,,"inconclusive: 3.55 µM [rising, full curve, poor fit]"
CCOc1ccc(-c2csc(NC(=O)CSC3=NC(=O)CN3C(C)=O)n2)c2ccccc12,,"inconclusive: 18.4 µM [falling, partial curve, poor fit]"
CC(=O)c1c(C)nc2ccc(Br)cc2c1-c1ccccc1,,"inconclusive: 12.6 µM [rising, partial curve, poor fit]"
CCOC(=O)c1c(NC(=O)OC)sc2c1CCC2,inactive: -1.59%,
O=C(Cc1c[nH]c2ccccc12)Nc1ccc(N2CCOCC2)cc1,inactive: 0.824%,
Clc1ccc(Nc2ncnc3ccc(Br)cc23)cc1,,"inconclusive: 35.5 µM [falling, partial curve, poor fit]"
CCN(C(=O)CSc1nc2ccccc2c(=O)n1-c1ccc(C)cc1)C1CCS(=O)(=O)C1 (stereo not given),inconclusive: -6.41%,
CCOC(=O)c1ccc(NC(=O)CSc2nnc(-c3cccs3)n2C)cc1,inactive: -1.5%,
COc1ccccc1/C=C/C=N/n1c(-c2ccc(Cl)cc2)n[nH]c1=S,,"inconclusive: 17.8 µM [falling, partial curve, poor fit]"
OC[C@@H]1[C@@H](c2ccc(Cl)cc2)C(c2ccccc2)=NN1c1ccccc1,inactive: 9.3%,
COc1cc(/C=C/C(=O)OCC(=O)N2CCC(C)CC2)ccc1OCC#N,inactive: 4%,
Cc1noc(C)c1NC(=O)Nc1cccc2c1O[C@H](CN(C)C(=O)Nc1ccccc1)[C@@H](C)CN([C@H](C)CO)C2=O,inconclusive: 0.676%,
Cc1ccc(NC(=O)Cc2ncon2)cc1Cl,inactive: -17.7%,
Cc1ccccc1OC1C(=O)N(Cc2ccc3c(c2)OCO3)C1c1sccc1C (stereo not given),inconclusive: 23.3%,
COc1ccccc1NC(=O)C1CCCN(C(=O)NCc2ccccc2)C1 (stereo not given),inactive: 8.66%,
COc1ccc(CCNC(=O)CCN2N=C(c3ccccc3)CCC2=O)cc1OC,inconclusive: -0.0016%,
Cc1ccc(/C(N)=N/OC(=O)CCc2ccccc2)cc1,inconclusive: 5.47%,
O=c1c2ccccc2nnn1CSc1ccc2ccccc2n1,inconclusive: -0.96%,
COc1ccc(CNC(=O)CN2CCN(c3ccccc3O)CC2)cc1OC,inconclusive: -6.71%,
O=C1CNC(=S)N1c1nc(-c2ccccc2)cs1,inactive: -10.4%,
CCCOc1ccc2cc(-c3ccccn3)c(=O)oc2c1,,"inconclusive: 25.9 µM [falling, partial curve]"
O=C(OCCN1CCOCC1)c1ccccc1,inconclusive: 7.28%,
CC(C)(C)c1ccc(/C=N/Nc2ccc(C(=O)O)cc2)cc1,inconclusive: 148%,
COc1cccc(C(=O)NN/C(C)=C/C(=O)C(F)(F)C(F)(F)C(F)(F)F)c1,,"inconclusive: 3.66 µM [falling, partial curve]"
O=C(N/N=C/c1ccccn1)c1ccc(Cl)c(Cl)c1,inconclusive: -2.52%,
Cc1ccc(S(=O)(=O)N2CCN(C(=O)Cc3ccccc3)CC2)cc1C,inconclusive: 12.5%,
CCOC(=O)C1CCCN(C2CC(=O)N(c3cccc(C)c3)C2=O)C1 (stereo not given),inconclusive: -1.22%,

# In the list so far, 3 have a CF3 group.
Structure (SMILES),"activity change, negative = inhibition",Potency
CCOC(=O)[C@@H]1[C@H]2COc3ccc(Br)cc3[C@@H]2N2C(=O)N(c3ccc(C(F)(F)F)cc3)C(=O)[C@]12C,,"inconclusive: 10 µM [falling, partial curve, poor fit]"
CCOC(=O)NC(NCc1ccccc1)(C(F)(F)F)C(F)(F)F,inconclusive: 1.13%,
COc1cccc(C(=O)NN/C(C)=C/C(=O)C(F)(F)C(F)(F)C(F)(F)F)c1,,"inconclusive: 3.66 µM [falling, partial curve]"

# Next entries follow.

Structure (SMILES),"activity change, negative = inhibition",Potency
O=c1n(Cc2ccc([N+](=O)[O-])cc2)c2ccccc2c2nc(-c3ccccc3)nn12,inactive: 10.6%,
COc1ccc(CCNC(=O)c2cc(-c3ccccc3)on2)cc1OC,,"inconclusive: 13 µM [falling, partial curve, poor fit]"
CC(Sc1nnc(C(F)(F)F)n1C)C(=O)Nc1ccc(N2CCOCC2)cc1 (stereo not given),inactive: -1.26%,
O=C(NCCC1=CCCCC1)c1coc(=O)c(Br)c1,,"inconclusive: 25.1 µM [falling, single point]"
Cc1ccc(C(=O)c2cc([N+](=O)[O-])ccc2N2CCOCC2)cc1C,inactive: 2.06%,
CS(=O)(=O)N(CC(=O)Nc1ccccc1Sc1ccccc1)C1CCCCC1,inconclusive: 20%,
CC1=C(C(N)=O)C(c2cccc(OCc3ccccc3)c2)n2nnnc2N1 (stereo not given),,"inconclusive: 22.4 µM [falling, single point]"
COc1ccc(N(C)C(=O)c2ccc3c(Cl)c4c(nc3c2)CCCC4)c(OC)c1,inconclusive: -1.48%,
O=S(=O)(c1ccc2c(c1)C(=NO)c1cc(S(=O)(=O)N3CCCCC3)ccc1-2)N1CCCCC1,,"inconclusive: 0.282 µM [rising, full curve, poor fit]"
O=C(CSc1ccccc1)N1CCN(S(=O)(=O)c2ccccc2F)CC1,inactive: 4.82%,
O=C(Oc1ccc2ccc(OC(=O)N3CCOCC3)cc2c1)N1CCOCC1,inconclusive: -6.16%,
Cn1cccc1-c1nc2ccc(NC(=O)c3ccc([N+](=O)[O-])cc3)cc2[nH]1,,"inconclusive: 7.31 µM [rising, partial curve]"
COc1ccc(-c2n(Cc3ccccc3)c3ccccc3[n+]2Cc2ccccc2)cc1,inconclusive: -9.34%,
COc1cccc(-c2csc(N3CCN(C(=O)C4CCCCC4)CC3)n2)c1,inactive: -2.88%,
N#Cc1nc(N2CCCCC2)nc(N2CCOCC2)n1,,"inconclusive: 3.26 µM [falling, partial curve, poor fit]"
O=C(CCc1ccccc1)N/N=C\C1CC=CCC1 (stereo not given),inconclusive: 3.92%,
C/C(Cl)=C/Cn1c(SCc2ccc(Cl)cc2)nc2c1c(=O)[nH]c(=O)n2C,inconclusive: -1.78%,
CC(=O)N1CCN(c2nc(-c3cccs3)nc3ccccc23)CC1,inconclusive: 10.3%,
CCOc1ccccc1Nc1nnc(SCC(=O)N2CCCC2)s1,,"inconclusive: 23.1 µM [falling, partial curve]"
CCN(CC)CCNC(=O)c1ccc(NC(=O)c2cn(-c3ccccc3)nc2-c2cccs2)cc1,inconclusive: -15.3%,
CC(=O)Nc1ccc(S(=O)(=O)N(C)c2ccc(O)cc2)cc1,inconclusive: -3.23%,
C[C@H](NC(=O)CCCOc1ccc(Cl)cc1Cl)c1nnc2ccccn12,inactive: 0.673%,
Cc1ccc(NC(=O)c2ccc(Cl)c(N3C(=O)C=CC3=O)c2)cc1,inconclusive: -7.48%,
CCn1c(-c2cc3c(C(F)(F)F)nn(C)c3s2)n[nH]c1=S,inactive: -15.7%,
O=C(CN1CCN(c2ccccn2)CC1)Nc1ccc(OCc2ccccc2)cc1,inactive: -0.222%,
Fc1ccccc1/C=C1\CCCC2=C1Nc1nnnn1C2c1ccccc1F (stereo not given),,"inconclusive: 22.4 µM [falling, single point]"
